Test system: transporters from neuron-derived, testicular and pulmonary cell membranes
Test: biological material separator with three transporter chips, amino-acid analysis using nano LC
Conditions: amino acid mixed solution fed in clearance 30-1, pH 6.5

Row | SMILES | distribution over clearances 30-2 to 30-4
1 | C[C@H](N)C(=O)O [Alanine, alanine] | detected in all of the clearances
2 | N[C@@H](CC(=O)O)C(=O)O [aspartic acid] | accumulated in the clearances 30-2 and 30-3
3 | N[C@@H](CCC(=O)O)C(=O)O [glutamic acid] | accumulated in the clearances 30-2 and 30-3
4 | NC(=O)CC[C@H](N)C(=O)O [glutamine] | detected in all of the clearances

— US7569354B2, “Cellomics system” (OnChip Cellomics Consortium, priority 2004, dated 2009)
